# For part of these data: At least one result comes from cells or an extract, where the contact may be indirect. For at least one entry, the source does not settle the construct or the ends of the probe. For part of these data: No signal at the amounts used counts as a negative. For part of these data: Weaker means in comparison with the reference protein, sequence or condition of that experiment.
# Chains of the proteins cited; added tags and fusions are not shown. Chains listed by the source or under a name are the forms on record and can include a tag or linker.
# CD3 complex on EL4 cells (Mus musculus), one chain, as listed by the source, chain 3 of 3: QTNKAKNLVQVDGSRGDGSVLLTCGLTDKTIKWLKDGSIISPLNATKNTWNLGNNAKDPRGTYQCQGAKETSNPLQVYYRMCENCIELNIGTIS
# CD3 complex on EL4 cells (Mus musculus), one chain, as listed by the source, chain 1 of 3: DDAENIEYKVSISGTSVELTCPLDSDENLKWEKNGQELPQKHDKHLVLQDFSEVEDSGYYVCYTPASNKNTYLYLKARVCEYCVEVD
# CD3 complex on EL4 cells (Mus musculus), one chain, as listed by the source, chain 2 of 3: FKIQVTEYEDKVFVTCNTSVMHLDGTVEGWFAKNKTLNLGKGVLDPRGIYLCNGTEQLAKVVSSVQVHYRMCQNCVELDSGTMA
# CD3 epsilon/gamma heterodimer (Homo sapiens), one chain, as listed by the source, chain 2 of 2: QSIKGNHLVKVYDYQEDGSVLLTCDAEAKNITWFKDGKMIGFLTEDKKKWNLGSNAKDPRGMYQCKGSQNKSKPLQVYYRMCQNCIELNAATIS
# CD3 epsilon/gamma heterodimer (Homo sapiens), one chain, as listed by the source, chain 1 of 2: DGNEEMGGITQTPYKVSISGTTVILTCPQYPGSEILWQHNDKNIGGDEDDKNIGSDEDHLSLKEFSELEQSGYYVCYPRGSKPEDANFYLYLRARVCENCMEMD
# Columns and labels:
# [1] = tested on: CD3 complex on Jurkat cells (Homo sapiens); assay: flow cytometry; conditions: protein on the cell surface, protein details: Jurkat ATCC TIB-152
# [2] = tested on: IgG1 Fc (counter target) (Homo sapiens); assay: SPR; conditions: purified recombinant protein, protein details: AcroBiosystems
# [3] = tested on: CD3 epsilon/gamma heterodimer (Homo sapiens); assay: SPR; conditions: 2'-F pyrimidines; kinetic, DPBS; purified recombinant protein; protein details: C-terminal human IgG1 Fc fusion, AcroBiosystems; label: 5'-biotin-TEG
# [4] = tested on: CD3 epsilon/delta heterodimer (Homo sapiens); assay: SPR; conditions: 2'-F pyrimidines; kinetic, DPBS; purified recombinant protein; protein details: C-terminal human IgG1 Fc fusion, AcroBiosystems; label: 5'-biotin-TEG
# [5] = tested on: CD3 epsilon/delta heterodimer (Mus musculus); assay: SPR; conditions: 2'-F pyrimidines; kinetic, DPBS; purified recombinant protein; protein details: Sino Biological; label: 5'-biotin-TEG
# [6] = tested on: CD3 complex on EL4 cells (Mus musculus); assay: flow cytometry; conditions: dose-dependent staining 3-300 nM, protein on the cell surface, protein details: EL4 ATCC CRL-2638, label: 5'-biotin-TEG
# [7] = higher specificity to Jurkat than Ramos, label: 5'-biotin-TEG, single-stranded DNA
# [8] = 2'-F pyrimidines, NA, DPBS, label: 5'-biotin-TEG
# [9] = _ is abasic C3 spacer, loss of binding, 50 and 100 nM, label: 5'-biotin-TEG, single-stranded DNA, variant of CELTIC_core
# [10] = 50 and 100 nM, SELEX buffer 5% FBS, 37 C, label: 5'-biotin-TEG, single-stranded DNA, variant of CELTIC_core
# [11] = loss of specificity, label: 5'-biotin-TEG, single-stranded DNA, variant of CELTIC_core
# [12] = preferential binding vs Ramos, label: 5'-biotin-TEG, single-stranded DNA
sequence,measurement,setting,value
AAGGGATTGGCGTCGGGCCTGGCGTAAGGAGGCTATGCTC [CELTIC_6s],binding result,[1]; [7],binds
CAAAGUUCAAGAUUGAGCUUUUUGCAGCGAUUCUUGUUUUAUCAAACGA [ARACD3-0270039],binding result,[2]; [8],no binding
same,Kd,[3],150 nM
same,Kd,[4],189 nM
same,Kd,[5],17.7 nM
CGGCAGGGGTTTGGCTCCGGGTCTGGCGAACTGGCTGAGA [CELTIC_5s],binding result,[1]; [7],binds
GAGGGGTTTGGCATCGGGCCTGGCGCCATTCAAGCTATGC [CELTIC_2s],binding result,"[1]; specificity improved by removing flanks, label: 5'-biotin-TEG, single-stranded DNA, variant of CELTIC_2",binds
GATGGAGGGTTTGGCGGTGGGCCTGGCAAGTTATCTCATA [CELTIC_11s],binding result,[1]; [7],binds
GCATCGAAATGGGGTTGGCACCGGGCCTGGCGAATTGGAT [CELTIC_9s],binding result,[1]; [7],binds
same,binding result,[6]; single-stranded DNA,binds
GCGTAAGGGTTTGGCAGCGGGCCTGGCGGAACGCGTGTAT [CELTIC_3s],binding result,"[1]; specificity improved by removing flanks, label: 5'-biotin-TEG, single-stranded DNA, variant of CELTIC_3",binds
GGAGTGGAGTATTCCGGGTTTGGCATCGGGCCTGGCGAAG [CELTIC_4s],binding result,[1]; [7],binds
same,binding result,[6]; single-stranded DNA,binds
GGGTTTGCACCGGGCCTGGC [CELTIC_core_7],binding result,[1]; [9],no binding
GGGTTTGCACCGGGCCTGGC [CELTIC_core_8],binding result,[1]; [9],no binding
GGGTTTGGACCGGGCCTGGC [CELTIC_core_9],binding result,[1]; [9],no binding
GGGTTTGGCAACGGGCTGGC [CELTIC_core_44],binding result,"[1]; 5'-HEG, affinity loss vs core, label: 5'-biotin-TEG, single-stranded DNA, variant of CELTIC_core",binds more weakly
GGGTTTGGCACCGGCCTGGC [CELTIC_core_10],binding result,[1]; [9],no binding
GGGTTTGGCACCGGCCTGGC [CELTIC_core_11],binding result,[1]; [9],no binding
GGGTTTGGCACCGGGCCTGGC [CELTIC_core_2],binding result,[1]; [10],no binding
GGGTTTGGCACCGGGCCTGGCGC [CELTIC_core_1],binding result,[1]; [11],binds
GGGTTTGGCACCGGGCTGGC [CELTIC_core_12],binding result,"[1]; _ is abasic C3 spacer (position 16), better affinity than core, reduced specificity, label: 5'-biotin-TEG, single-stranded DNA, variant of CELTIC_core",binds
same,binding result,"[2]; _ is abasic C3 spacer at position 16, NA, label: 5'-biotin-TEG, single-stranded DNA, variant of CELTIC_core",no binding
GGGTTTGGCACCGGGCTGGC [CELTIC_core_13],binding result,"[1]; _ is abasic C3 spacer, 50 and 100 nM, SELEX buffer 5% FBS, 37 C, label: 5'-biotin-TEG, single-stranded DNA, variant of CELTIC_core",no binding
GGGTTTGGCACGGGCCTGGC [CELTIC_core_24],binding result,"[1]; _ is abasic C3 spacer (position 11), 5'-HEG, equal or improved affinity and specificity vs core, label: 5'-biotin-TEG, single-stranded DNA, variant of CELTIC_core",binds
same,binding result,"[2]; _ is abasic C3 spacer (position 11), 5'-HEG, no interaction observed, label: 5'-biotin-TEG, single-stranded DNA, variant of CELTIC_core",no binding
GGGTTTGGCACGGGCCTGGC [CELTIC_core_24t],binding result,"[2]; _ is abasic C3 spacer (position 11), 5'-HEG, 3'-3' dT, no interaction observed, label: 5'-biotin-TEG, single-stranded DNA, variant of CELTIC_core_24",no binding
GGGTTTGGCACGGGCTGGC [CELTIC_core_42],binding result,"[2]; _ is abasic C3 spacer at positions 11 and 16, 5'-HEG, NA, label: biotin, single-stranded DNA, variant of CELTIC_core",no binding
GGGTTTGGCACGGGCTGGC [CELTIC_core_42t],binding result,"[1]; _ is abasic C3 spacer (positions 11 and 16), 5'-HEG, 3'-3' dT, label: 5'-biotin-TEG, single-stranded DNA, variant of CELTIC_core_42",binds
same,binding result,"[2]; _ is abasic C3 spacer (positions 11 and 16), 5'-HEG, 3'-3' dT, no interaction observed, label: 5'-biotin-TEG, single-stranded DNA, variant of CELTIC_core_42",no binding
GGGTTTGGCATCGGGACTGGC [CELTIC_core_38],binding result,"[1]; 5'-HEG, no impact of C16A, label: 5'-biotin-TEG, single-stranded DNA, variant of CELTIC_core",binds
GGGTTTGGCATCGGGCCTGGCG [CELTIC_core_4],binding result,[1]; [11],binds
GGGTTTGGCATCGGGCTGGC [CELTIC_core_29],binding result,"[1]; _ is abasic C3 spacer (position 16), 5'-HEG, equal or improved affinity and specificity vs core, label: 5'-biotin-TEG, single-stranded DNA, variant of CELTIC_core",binds
same,binding result,"[2]; _ is abasic C3 spacer (position 16), 5'-HEG, no interaction observed, label: 5'-biotin-TEG, single-stranded DNA, variant of CELTIC_core",no binding
GGGTTTGGCATCGGGGCTGGC [CELTIC_core_39],binding result,"[1]; 5'-HEG, reduced affinity, 50 and 100 nM, label: biotin, single-stranded DNA, variant of CELTIC_core",binds more weakly
GGGTTTGGCATCGGGTCTGGC [CELTIC_core_40],binding result,"[1]; 5'-HEG, improved affinity and specificity vs core, label: 5'-biotin-TEG, single-stranded DNA, variant of CELTIC_core",binds
GGGTTTGGCATCGGGTCTGGC [CELTIC_core_40t],binding result,"[1]; 5'-HEG, 3'-3' dT, label: 5'-biotin-TEG, single-stranded DNA, variant of CELTIC_core_40",binds
GGGTTTGGCATGGGCCTGGC [CELTIC_core_25],binding result,"[1]; _ is abasic C3 spacer at position 12, 5'-HEG, reduced affinity, 50 and 100 nM, label: biotin, single-stranded DNA, variant of CELTIC_core",binds more weakly
GGGTTTGGCGGTGGGCCTGGC [CELTIC_core_5],binding result,[1]; [10],no binding
GGGTTTGGCTCGGGCCTGGC [CELTIC_core_23],binding result,"[1]; _ is abasic C3 spacer at position 10, 5'-HEG, reduced affinity, 50 and 100 nM, label: biotin, single-stranded DNA, variant of CELTIC_core",binds more weakly
GGTCGGGTGCTACTGAGCGATTGGCTTTCCGGACTGGGGA [CELTIC_21s],binding result,"[1]; specificity improved by removing flanks, label: 5'-biotin-TEG, single-stranded DNA, variant of CELTIC_21",binds
TACCGCGGGGATTGGCTCCGGGCCTGGCGTCGTAATCTGA [CELTIC_19s],binding result,[1]; [7],binds
same,binding result,[6]; single-stranded DNA,binds
TAGGGAAGAGAAGGACATATGATCCGGGTGGGGGTTTGGCACCGGGCCTGGCGCAGGGATTCGTTGACTAGTACATGACCACTTGA [CELTIC_1],binding result,"[1]; preferential binding vs CD3-negative Ramos, label: 5'-biotin-TEG, single-stranded DNA",binds
TAGGGAAGAGAAGGACATATGATGAGGGGTTTGGCATCGGGCCTGGCGCCATTCAAGCTATGCTTGACTAGTACATGACCACTTGA [CELTIC_2],binding result,[1]; [12],binds
TAGGGAAGAGAAGGACATATGATGCGTAAGGGTTTGGCAGCGGGCCTGGCGGAACGCGTGTATTTGACTAGTACATGACCACTTGA [CELTIC_3],binding result,"[1]; apparent, preferential over CD3-negative Ramos, label: 5'-biotin-TEG, single-stranded DNA",binds
TAGGGAAGAGAAGGACATATGATGGTCGGGTGCTACTGAGCGATTGGCTTTCCGGACTGGGGATTGACTAGTACATGACCACTTGA [CELTIC_21],binding result,[1]; [12],binds
TTTCCGGGTGGGGGTTTGGCACCGGGCCTGGCGCAGGGATTCG [CELTIC_1s],binding result,"[1]; preferential binding vs Ramos, not competed by OKT3, UCHT1, HIT3a, label: 5'-biotin-TEG, single-stranded DNA, variant of CELTIC_1",binds
same,binding result,"[6]; single-stranded DNA, variant of CELTIC_1",binds
TTTGGGTTTGGCACCGGGCCTGGC [CELTIC_core_6],binding result,[1]; [10],no binding
TTTGGGTTTGGCATCGGGCCTGGC [CELTIC_core_T],binding result,"[1]; binding properties as core, label: 5'-biotin-TEG, single-stranded DNA, variant of …",binds
UCUAAGCAAUAUUGUUUGCUUUUGCAGCGAUUCUGUUUCGAUAUAUUA [ARACD3-0010209],binding result,"[1]; 2'-F pyrimidines, label: 5'-biotin-TEG",binds
same,binding result,"[6]; 2'-F pyrimidines, DPBS",binds
same,binding result,[2]; [8],no binding
same,Kd,[3],20.6 nM
same,Kd,[4],22 nM
UUCAAGAUAAUGUAAUUAUUUUUGCAGCGAUUCUUGUUUUGUUCGAUUU [ARACD3-2980001],binding result,[2]; [8],no binding
same,Kd,[3],231 nM
same,Kd,[4],239 nM
same,Kd,[5],26.5 nM

# Reference: patent publication US20220251562
